Source: paper doi:10.1101/2021.08.20.456807
Results are given in words; binding and its absence hold for the method and conditions named. Binding seen in cells or lysates may run through a third protein. Some binding calls cover weakened binding; strength is not graded here.

The chains behind the UniProt entries cited, without tags or fusion partners.
UniProt P08670: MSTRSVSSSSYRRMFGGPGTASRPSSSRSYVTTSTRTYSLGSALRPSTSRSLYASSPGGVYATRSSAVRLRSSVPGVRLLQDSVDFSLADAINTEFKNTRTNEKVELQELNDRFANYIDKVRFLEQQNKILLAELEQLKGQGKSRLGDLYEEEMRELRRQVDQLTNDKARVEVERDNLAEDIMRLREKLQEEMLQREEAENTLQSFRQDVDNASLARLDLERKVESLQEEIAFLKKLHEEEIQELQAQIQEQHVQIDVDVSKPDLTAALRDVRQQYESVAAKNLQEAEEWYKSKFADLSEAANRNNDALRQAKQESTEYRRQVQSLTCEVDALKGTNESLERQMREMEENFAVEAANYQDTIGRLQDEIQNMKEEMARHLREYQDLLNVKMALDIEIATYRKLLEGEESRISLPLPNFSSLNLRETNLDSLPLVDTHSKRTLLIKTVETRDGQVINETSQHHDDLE
UniProt Q9NZJ4: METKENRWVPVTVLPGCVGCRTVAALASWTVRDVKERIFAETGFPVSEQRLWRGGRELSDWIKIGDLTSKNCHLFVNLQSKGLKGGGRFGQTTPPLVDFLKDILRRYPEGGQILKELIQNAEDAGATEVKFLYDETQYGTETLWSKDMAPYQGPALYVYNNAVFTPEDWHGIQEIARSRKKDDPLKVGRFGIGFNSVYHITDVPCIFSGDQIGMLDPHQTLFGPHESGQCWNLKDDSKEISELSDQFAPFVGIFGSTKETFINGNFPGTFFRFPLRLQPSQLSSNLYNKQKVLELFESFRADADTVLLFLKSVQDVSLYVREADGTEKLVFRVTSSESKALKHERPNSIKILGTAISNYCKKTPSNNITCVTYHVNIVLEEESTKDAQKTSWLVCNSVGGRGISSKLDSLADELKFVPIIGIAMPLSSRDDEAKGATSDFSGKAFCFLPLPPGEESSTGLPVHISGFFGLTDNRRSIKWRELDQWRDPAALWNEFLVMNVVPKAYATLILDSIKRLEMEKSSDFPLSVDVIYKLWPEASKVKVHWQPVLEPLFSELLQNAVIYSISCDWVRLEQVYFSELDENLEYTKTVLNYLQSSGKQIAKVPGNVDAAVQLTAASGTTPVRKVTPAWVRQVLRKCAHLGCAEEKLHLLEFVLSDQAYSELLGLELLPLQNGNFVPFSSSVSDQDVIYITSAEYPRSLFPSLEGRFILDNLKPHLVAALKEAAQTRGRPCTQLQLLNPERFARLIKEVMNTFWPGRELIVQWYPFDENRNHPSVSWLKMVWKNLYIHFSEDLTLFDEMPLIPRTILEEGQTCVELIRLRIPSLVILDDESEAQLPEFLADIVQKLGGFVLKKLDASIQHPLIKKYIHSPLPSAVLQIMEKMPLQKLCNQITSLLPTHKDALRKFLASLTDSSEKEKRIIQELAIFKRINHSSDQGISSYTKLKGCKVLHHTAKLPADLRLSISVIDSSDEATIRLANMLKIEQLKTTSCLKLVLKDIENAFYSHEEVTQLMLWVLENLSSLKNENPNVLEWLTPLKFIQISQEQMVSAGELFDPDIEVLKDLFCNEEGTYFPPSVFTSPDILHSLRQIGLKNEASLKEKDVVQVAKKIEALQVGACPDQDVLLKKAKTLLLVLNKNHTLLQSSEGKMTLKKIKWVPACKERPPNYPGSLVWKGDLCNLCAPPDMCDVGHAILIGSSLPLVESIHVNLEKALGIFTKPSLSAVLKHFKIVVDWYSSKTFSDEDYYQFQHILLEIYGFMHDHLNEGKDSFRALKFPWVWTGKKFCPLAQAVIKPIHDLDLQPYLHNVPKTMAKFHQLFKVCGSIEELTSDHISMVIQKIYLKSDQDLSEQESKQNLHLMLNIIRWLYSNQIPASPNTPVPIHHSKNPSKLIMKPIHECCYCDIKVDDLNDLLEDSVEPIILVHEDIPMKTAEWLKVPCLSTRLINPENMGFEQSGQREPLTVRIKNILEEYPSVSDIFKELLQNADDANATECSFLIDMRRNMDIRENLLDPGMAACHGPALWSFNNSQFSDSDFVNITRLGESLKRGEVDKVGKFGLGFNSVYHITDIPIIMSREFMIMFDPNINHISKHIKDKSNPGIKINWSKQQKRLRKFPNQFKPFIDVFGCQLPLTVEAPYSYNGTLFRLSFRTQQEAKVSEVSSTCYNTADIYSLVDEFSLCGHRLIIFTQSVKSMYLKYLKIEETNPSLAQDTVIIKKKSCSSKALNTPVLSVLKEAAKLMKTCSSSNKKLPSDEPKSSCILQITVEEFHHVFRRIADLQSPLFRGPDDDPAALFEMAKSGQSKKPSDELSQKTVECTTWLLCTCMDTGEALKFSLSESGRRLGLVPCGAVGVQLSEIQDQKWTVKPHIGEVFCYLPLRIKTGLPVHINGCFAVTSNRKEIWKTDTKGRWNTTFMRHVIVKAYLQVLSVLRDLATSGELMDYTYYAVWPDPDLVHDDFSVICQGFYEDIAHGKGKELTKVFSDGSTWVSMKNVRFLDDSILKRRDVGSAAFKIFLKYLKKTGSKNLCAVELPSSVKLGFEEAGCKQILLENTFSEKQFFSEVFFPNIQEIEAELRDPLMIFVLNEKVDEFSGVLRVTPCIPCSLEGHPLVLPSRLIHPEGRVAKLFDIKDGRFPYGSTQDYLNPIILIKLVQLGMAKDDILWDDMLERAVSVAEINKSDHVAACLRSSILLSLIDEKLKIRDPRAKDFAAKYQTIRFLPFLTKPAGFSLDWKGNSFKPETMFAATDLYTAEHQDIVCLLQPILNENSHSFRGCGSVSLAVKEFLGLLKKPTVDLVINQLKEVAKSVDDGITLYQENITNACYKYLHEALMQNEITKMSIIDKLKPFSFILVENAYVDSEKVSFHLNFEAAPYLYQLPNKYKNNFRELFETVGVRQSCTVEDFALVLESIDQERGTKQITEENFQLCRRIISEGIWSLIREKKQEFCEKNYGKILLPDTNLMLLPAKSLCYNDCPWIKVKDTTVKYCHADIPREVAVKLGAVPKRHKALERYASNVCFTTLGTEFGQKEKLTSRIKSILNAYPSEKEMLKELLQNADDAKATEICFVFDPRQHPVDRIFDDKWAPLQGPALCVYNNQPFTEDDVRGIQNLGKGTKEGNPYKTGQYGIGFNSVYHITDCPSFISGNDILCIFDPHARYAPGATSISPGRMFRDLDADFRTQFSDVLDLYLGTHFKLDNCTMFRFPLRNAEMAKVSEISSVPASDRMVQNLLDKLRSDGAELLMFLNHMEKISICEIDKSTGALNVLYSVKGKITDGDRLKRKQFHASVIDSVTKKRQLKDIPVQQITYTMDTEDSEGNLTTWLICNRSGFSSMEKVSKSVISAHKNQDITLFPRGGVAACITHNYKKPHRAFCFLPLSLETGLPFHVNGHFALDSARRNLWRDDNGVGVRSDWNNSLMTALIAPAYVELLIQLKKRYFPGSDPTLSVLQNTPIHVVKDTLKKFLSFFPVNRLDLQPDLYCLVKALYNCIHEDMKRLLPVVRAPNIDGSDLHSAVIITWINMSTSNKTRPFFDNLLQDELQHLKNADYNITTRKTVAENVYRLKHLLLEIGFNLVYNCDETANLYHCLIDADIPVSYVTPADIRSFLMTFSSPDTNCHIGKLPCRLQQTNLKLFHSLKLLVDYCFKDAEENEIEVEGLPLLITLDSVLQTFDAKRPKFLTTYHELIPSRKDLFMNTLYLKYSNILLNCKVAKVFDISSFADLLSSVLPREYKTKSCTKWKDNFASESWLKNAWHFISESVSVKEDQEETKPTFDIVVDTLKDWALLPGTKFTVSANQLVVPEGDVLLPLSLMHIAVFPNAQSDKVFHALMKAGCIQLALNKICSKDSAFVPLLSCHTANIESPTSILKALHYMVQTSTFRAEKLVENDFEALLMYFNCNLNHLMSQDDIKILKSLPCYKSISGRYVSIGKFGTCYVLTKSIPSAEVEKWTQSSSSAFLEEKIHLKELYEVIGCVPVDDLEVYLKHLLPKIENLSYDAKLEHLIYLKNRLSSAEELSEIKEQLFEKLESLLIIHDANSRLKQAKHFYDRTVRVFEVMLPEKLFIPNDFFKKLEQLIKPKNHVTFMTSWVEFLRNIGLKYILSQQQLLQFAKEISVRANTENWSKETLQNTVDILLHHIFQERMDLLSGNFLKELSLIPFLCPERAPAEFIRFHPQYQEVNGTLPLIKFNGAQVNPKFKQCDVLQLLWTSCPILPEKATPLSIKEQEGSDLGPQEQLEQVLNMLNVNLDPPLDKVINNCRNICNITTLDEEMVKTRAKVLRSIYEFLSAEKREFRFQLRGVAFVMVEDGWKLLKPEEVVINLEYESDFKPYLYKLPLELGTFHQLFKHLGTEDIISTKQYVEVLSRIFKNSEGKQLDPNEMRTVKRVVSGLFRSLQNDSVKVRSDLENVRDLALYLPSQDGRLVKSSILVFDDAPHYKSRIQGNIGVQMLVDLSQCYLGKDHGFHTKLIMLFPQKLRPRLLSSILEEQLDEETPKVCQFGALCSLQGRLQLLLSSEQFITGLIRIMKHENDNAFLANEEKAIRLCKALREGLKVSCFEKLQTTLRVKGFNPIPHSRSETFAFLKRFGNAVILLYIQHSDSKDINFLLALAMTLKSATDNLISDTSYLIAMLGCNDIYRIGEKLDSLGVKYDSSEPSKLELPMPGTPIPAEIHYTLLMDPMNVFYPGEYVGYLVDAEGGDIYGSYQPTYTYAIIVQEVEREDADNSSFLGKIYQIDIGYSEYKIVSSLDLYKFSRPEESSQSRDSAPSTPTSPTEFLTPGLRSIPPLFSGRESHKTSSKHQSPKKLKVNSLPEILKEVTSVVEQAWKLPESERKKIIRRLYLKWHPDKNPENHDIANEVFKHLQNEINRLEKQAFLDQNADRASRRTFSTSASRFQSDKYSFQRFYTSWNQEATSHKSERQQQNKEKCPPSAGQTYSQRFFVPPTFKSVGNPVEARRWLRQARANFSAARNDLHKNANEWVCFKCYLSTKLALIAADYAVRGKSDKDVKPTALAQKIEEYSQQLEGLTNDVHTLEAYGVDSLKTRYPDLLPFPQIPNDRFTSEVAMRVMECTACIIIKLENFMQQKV

Tests used:
[1] = target: vimentin (human (endogenous in SH-SY5Y)) (UniProt P08670); assay: co-IP
[2] = target: sacsin (human (endogenous in SH-SY5Y)) (UniProt Q9NZJ4); assay: co-IP

Substance	binding [1]	binding [2]
sacsin (from UniProt Q9NZJ4 1-4579)	binds	
vimentin (from UniProt P08670 1-466)		binds
